Reference: patent publication US6635440
For part of these data: Negatives hold for the conditions tested. For part of these data: Tags and fusion partners may be left off the protein sequences shown. For part of these data: For at least one entry, the source does not settle the construct or the ends of the probe. For part of these data: Results from cells or extracts need not show a direct contact. For part of these data: A weaker result is weaker than the reference pair of the same experiment.

Chains of the proteins cited; added tags and fusions are not shown. Lines headed by an entry give the natural chain unless they say otherwise; changes in a name come on top. Residues count along the entry.
UniProt P09012, 2-282: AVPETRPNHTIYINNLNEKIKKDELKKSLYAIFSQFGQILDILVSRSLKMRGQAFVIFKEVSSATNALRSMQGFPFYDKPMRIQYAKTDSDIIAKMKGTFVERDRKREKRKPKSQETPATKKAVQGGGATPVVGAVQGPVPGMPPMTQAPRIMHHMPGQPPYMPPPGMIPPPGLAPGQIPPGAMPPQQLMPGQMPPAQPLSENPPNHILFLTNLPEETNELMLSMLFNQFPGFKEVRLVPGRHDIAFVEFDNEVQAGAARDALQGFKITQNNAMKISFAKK

How the values were obtained:
U1A spliceosomal protein [1] = biological target: U1A spliceosomal protein (UniProt P09012); experiment: activity in cells; conditions: no GFP repression
U1A spliceosomal protein [2] = biological target: U1A spliceosomal protein (UniProt P09012); experiment: binding assay; conditions: CITED literature affinity range; protein in cells; protein details: expressed from YCpU1A in S. cerevisiae RS453
[3] = biological target: T1, IRP-1 (iron regulatory protein 1) (UniProt P21399); experiment: activity in cells
T1 sequence (looked up, limits assumed): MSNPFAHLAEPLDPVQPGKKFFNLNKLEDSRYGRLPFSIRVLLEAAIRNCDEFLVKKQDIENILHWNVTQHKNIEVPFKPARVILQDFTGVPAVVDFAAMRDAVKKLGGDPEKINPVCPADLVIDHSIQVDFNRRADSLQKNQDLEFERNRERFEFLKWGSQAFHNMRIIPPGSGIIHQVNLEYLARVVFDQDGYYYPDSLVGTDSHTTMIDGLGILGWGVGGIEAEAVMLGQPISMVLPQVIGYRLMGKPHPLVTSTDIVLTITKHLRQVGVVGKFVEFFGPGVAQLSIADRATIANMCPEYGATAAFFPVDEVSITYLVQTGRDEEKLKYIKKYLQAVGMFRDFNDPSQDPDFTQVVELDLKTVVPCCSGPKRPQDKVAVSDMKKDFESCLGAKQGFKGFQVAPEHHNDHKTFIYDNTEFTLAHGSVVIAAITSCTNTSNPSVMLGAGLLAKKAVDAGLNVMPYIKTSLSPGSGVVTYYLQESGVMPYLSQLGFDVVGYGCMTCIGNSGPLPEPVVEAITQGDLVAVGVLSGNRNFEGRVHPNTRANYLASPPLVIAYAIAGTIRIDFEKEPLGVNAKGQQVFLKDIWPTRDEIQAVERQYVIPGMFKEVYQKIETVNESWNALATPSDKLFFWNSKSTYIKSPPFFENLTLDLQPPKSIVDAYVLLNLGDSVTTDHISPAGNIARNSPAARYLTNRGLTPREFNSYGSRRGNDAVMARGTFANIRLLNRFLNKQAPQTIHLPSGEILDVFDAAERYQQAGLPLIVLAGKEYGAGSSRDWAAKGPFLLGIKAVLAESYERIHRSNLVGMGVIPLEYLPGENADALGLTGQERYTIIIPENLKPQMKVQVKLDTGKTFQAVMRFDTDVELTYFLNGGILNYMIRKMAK

[4] = biological target: T1, IRP-1 (iron regulatory protein 1); experiment: binding assay; conditions: CITED literature affinity range; protein in cells; protein details: expressed from YCpIRP-1 in S. cerevisiae RS453
[5] = biological target: T2, MS2 coat protein (Bacteriophage MS2) (UniProt P03612); experiment: binding assay; conditions: CITED literature affinity range, protein in cells, protein details: expressed from YCpCP in S. cerevisiae RS453
T2 sequence (looked up, limits assumed): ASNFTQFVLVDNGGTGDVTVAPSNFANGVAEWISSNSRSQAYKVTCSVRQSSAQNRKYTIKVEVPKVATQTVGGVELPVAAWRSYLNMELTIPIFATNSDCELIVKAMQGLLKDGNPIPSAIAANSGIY

## AAUUAUCUACUUAAGCGAUUCAUCUCCCGCUUAAGAACACAAAACUCGAGAACAUAUUUUUAAUAUUAUG [U1Amt GFP 5'UTR]
U1A spliceosomal protein [1]; mutant site, protein details: expressed from YCpU1A in S. cerevisiae RS453, variant of U1Awt (U1 snRNA loop 2) GFP 5'UTR
  functional effect: not active

## AAUUAUCUACUUAAGCGAUUGCACUCCCGCUUAAGAACACAAAACUCGAGAACAUAUUUUUAAUAUUAUG [U1Awt (U1 snRNA loop 2) GFP 5'UTR]
U1A spliceosomal protein [2]
  binding result: binds
[3]; non-cognate protein, no GFP repression, protein details: expressed from YCpIRP-1 in S. cerevisiae RS453
  functional effect: not active

## AAUUAUCUACUUAAGCUUCAAAGUGCUUGAACUUAAGAACACAAAACUCGAGAACAUAUUUUUAAUAUUAUG [IREmt GFP 5'UTR]
[3]; mutant site, no GFP repression, protein details: expressed from YCpIRP-1 in S. cerevisiae RS453, variant of IREwt GFP 5'UTR
  functional effect: not active

## AAUUAUCUACUUAAGCUUCAACAGUGCUUGAACUUAAGAACACAAAACUCGAGAACAUAUUUUUAAUAUUAUG [IREwt GFP 5'UTR]
[4]
  binding result: binds
[3]; GFP repression in yeast, galactose vs glucose, protein details: expressed from YCpIRP-1 in S. cerevisiae RS453
  functional effect: active
U1A spliceosomal protein [1]; non-cognate protein, protein details: expressed from YCpU1A in S. cerevisiae RS453
  functional effect: not active

## AAUUAUCUACUUAAGGACCAUAAGGCCUUAAGAACACAAAACUCGAGAACAUAUUUUUAAUAUUAUG [MSA GFP 5'UTR]
[5]; printed mM but text p114 says micromolar range, variant of MSC GFP 5'UTR
  binding result: binds more weakly

## AAUUAUCUACUUAAGGACCAUCAGGCCUUAAGAACACAAAACUCGAGAACAUAUUUUUAAUAUUAUG [MSC GFP 5'UTR]
[5]
  binding result: binds
